PubChem BioAssay AID1259297 – Sanger Institute – 2017
Test: 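siRNA screen across the kinome seeking drug partners in cells of colorectal cancer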 (primary screen). System: human RCM1 colorectal cancer cell line. Reagents: siRNA pool against human genes. Conditions: separate arms: DMSO vehicle, or one anchor drug at a mild dose: BYL719 1 µM, cetuximab 5 µg/ml, trametinib 10 nM. Measured: 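Viability per well relative to a non-targeting pool, mean of replicates; robust z-score for knock-down alone; synergy score with BYL719, cetuximab or trametinib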. Scale: viability z-score, knock-down alone: higher = more viable cells than non-targeting controls; viability, knock-down alone (DMSO): higher = more viable cells; synergy score with trametinib: higher = stronger combined killing with trametinib. Rule for the call: 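Called essential if knock-down without drug gives a viability robust z-score under -3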. Meaning of the calls: active = essential when knocked down alone; inactive = no clear loss of viability alone.
The whole screen tested 794 reagents; below is an unselected part. Of all reagents, 13 (1.6%) are marked active. 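Calls reflect knock-down without drug only; drug synergy is judged separately, with scores above 0.15 counted as synergy.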 A number with no mark means an inactive call. Viability is capped at 1. Not all columns of the deposit are shown. Not stated in the record: the amount of reagent, the time to read-out.

The first 4 records, ahead of the listing:
no.	gene	viability z-score, knock-down alone	viability, knock-down alone (DMSO) (fraction of control)	synergy score with trametinib
1	PTK7 (protein tyrosine kinase 7 (inactive))	-3.21 (active)	0.619	-0.0479
2	CAMK2D (calcium/calmodulin dependent protein kinase II delta)	0.9	1	-0.091
3	SLK (STE20 like kinase)	0.9	1	-0.0877
4	CERT1 (ceramide transporter 1)	-1.45	0.782	0.137

The listing, from the start:
no.	gene	viability z-score, knock-down alone	viability, knock-down alone (DMSO) (fraction of control)	synergy score with trametinib
1	PTK7 (protein tyrosine kinase 7 (inactive))	-3.21 (active)	0.619	-0.0479
2	CAMK2D (calcium/calmodulin dependent protein kinase II delta)	0.9	1	-0.091
3	SLK (STE20 like kinase)	0.9	1	-0.0877
4	CERT1 (ceramide transporter 1)	-1.45	0.782	0.137
5	MYO3B (myosin IIIB)	0.542	0.967	-0.0349
6	PRKCSH (PRKCSH beta subunit of glucosidase II)	0.193	0.934	-0.0416
7	PKDCC (protein kinase domain containing, cytoplasmic)	0.327	0.947	0.0826
8	PDIK1L (PDLIM1 interacting kinase 1 like)	0.441	0.957	-0.0184
9	CSNK1E (casein kinase 1 epsilon)	-0.261	0.892	-0.0393
10	SGK1 (serum/glucocorticoid regulated kinase 1)	-0.895	0.833	-0.0119
11	CDK12 (cyclin dependent kinase 12)	0.249	0.94	-0.0484
12	ATR (ATR checkpoint kinase)	0.9	1	-0.0543
13	MPP3 (MAGUK p55 scaffold protein 3)	-4.37 (active)	0.511	0.0636
14	MAPK6 (mitogen-activated protein kinase 6)	-1.02	0.822	0.00727
15	PDK3 (pyruvate dehydrogenase kinase 3)	0.9	1	0.127
16	BRWD1 (bromodomain and WD repeat domain containing 1)	0.493	0.962	0.0576
17	MYO3A (myosin IIIA)	0.125	0.928	0.129
18	MET (MET proto-oncogene, receptor tyrosine kinase)	0.9	1	-0.0937
19	MAP3K9 (mitogen-activated protein kinase kinase kinase 9)	-1.5	0.777	0.054
20	STK24 (serine/threonine kinase 24)	0.9	1	0.0204
21	MUSK (muscle associated receptor tyrosine kinase)	-1.06	0.818	0.15
22	TEX14 (testis expressed 14, intercellular bridge forming factor)	0.9	1	-0.0534
23	DYRK2 (dual specificity tyrosine phosphorylation regulated kinase 2)	-1.47	0.78	0.0695
24	CIT (citron rho-interacting serine/threonine kinase)	-1.89	0.741	-0.0429
25	CASP8 (caspase 8)	0.9	1	-0.108
26	MAPK4 (mitogen-activated protein kinase 4)	-0.9	0.833	0.0966
27	ETNK1 (ethanolamine kinase 1)	0.9	1	0.059
28	NEK10 (NIMA related kinase 10)	-0.358	0.883	0.0548
29	DDR2 (discoidin domain receptor tyrosine kinase 2)	0.503	0.963	0.0204
30	PRAG1 (PEAK1 related, kinase-activating pseudokinase 1)	-1.88	0.742	0.0411
31	KSR1 (kinase suppressor of ras 1)	-2.33	0.7	-0.0138
32	CSNK1G1 (casein kinase 1 gamma 1)	0.9	1	0.109
33	GSK3A (glycogen synthase kinase 3 alpha)	-0.674	0.854	0.0253
34	TSSK3 (testis specific serine kinase 3)	0.487	0.962	-0.0519
35	STK35 (serine/threonine kinase 35)	0.9	1	0.0574
36	PDXK (pyridoxal kinase)	0.9	1	-0.106
37	RIOK3 (RIO kinase 3)	0.303	0.945	0.0656
38	IKBKB (inhibitor of nuclear factor kappa B kinase subunit beta)	0.541	0.967	0.158
39	MERTK (MER proto-oncogene, tyrosine kinase)	-0.0826	0.909	0.0988
40	LMBR1 (limb development membrane protein 1)	0.704	0.982	0.0748
41	TRIO (trio Rho guanine nucleotide exchange factor)	0.117	0.927	0.0443
42	TCF12 (transcription factor 12)	0.0273	0.919	-0.0931
43	MAGI3	-1.04	0.82	0.0588
44	WNK3 (WNK lysine deficient protein kinase 3)	-0.526	0.868	0.0383
45	GALK1 (galactokinase 1)	-2.94	0.643	-0.015
46	TTK (TTK protein kinase)	0.9	1	-0.0488
47	CDK11B (cyclin dependent kinase 11B)	-0.661	0.855	-0.0546
48	SMG1	0.9	1	0.0974
49	HK3 (hexokinase 3)	0.9	1	0.0791
50	TSSK4 (testis specific serine kinase 4)	0.9	1	0.0855
